Results are given in words; binding and its absence hold for the method and conditions named. Binding can be weak; no strength is given.
Molecular target: RAD51AP1^DM mutant (human) (UniProt Q96B01)
Assay: pull-down; GST or MBP-tagged RAD51AP1 (2 ug) and Strep II-tagged UAF1 (2 ug) in 30 ul of 25 mM Tris-HCl pH 7.5, 10% glycerol, 0.5 mM EDTA, 0.01% Igepal, 1 mM DTT, 150 mM KCl for 30 min; captured on glutathione or amylose resin at 4 C for 1 h; SDS eluate on SDS-PAGE, Coomassie Blue; both purified

Protein sequences, listed by entry. Tags and fused reporters are not part of them. Lines headed by an entry give the natural chain unless they say otherwise; changes in a name come on top.
UniProt Q96B01: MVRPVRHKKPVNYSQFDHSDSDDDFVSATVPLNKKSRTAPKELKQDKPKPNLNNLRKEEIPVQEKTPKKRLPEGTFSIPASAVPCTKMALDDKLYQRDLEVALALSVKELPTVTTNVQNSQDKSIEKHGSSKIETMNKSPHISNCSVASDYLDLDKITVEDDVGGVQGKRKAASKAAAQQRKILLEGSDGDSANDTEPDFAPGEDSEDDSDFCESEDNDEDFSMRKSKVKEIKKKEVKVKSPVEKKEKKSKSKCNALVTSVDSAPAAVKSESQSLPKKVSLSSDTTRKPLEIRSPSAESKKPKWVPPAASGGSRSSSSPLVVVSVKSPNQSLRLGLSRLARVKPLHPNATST
UniProt Q8TAF3: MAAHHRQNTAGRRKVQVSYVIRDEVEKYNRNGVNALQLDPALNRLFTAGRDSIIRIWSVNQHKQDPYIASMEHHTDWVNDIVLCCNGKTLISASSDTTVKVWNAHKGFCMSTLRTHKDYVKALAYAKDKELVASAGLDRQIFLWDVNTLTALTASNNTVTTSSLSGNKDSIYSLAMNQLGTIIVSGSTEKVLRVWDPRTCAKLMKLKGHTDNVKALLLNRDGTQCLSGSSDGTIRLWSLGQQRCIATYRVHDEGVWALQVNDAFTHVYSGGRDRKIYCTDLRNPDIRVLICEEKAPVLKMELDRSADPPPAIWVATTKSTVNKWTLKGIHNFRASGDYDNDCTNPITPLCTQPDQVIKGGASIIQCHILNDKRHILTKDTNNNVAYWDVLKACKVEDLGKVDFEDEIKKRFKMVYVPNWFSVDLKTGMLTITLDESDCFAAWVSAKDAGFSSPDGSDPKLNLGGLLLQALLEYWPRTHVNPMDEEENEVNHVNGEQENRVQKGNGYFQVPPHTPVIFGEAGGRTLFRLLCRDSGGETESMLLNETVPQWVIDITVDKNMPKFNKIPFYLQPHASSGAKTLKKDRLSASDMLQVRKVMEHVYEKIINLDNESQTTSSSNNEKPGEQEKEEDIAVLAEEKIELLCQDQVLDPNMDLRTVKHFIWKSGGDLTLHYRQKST

binding: binds
Substance: UAF1 (from UniProt Q8TAF3 1-677)
